This assay can be described thus: qHTS Assay for Modulators of Lamin A Splicing. The conditions noted are these: HeLa LMNA splicing GFP/RFP minigene ratio, 48 h. The procedure, abridged:
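Read-out is the ratio of GFP to DsRed2 object intensity, acquired by 488 nm laser-scanning cytometry on HeLa lamin A-EGFP minigene reporter cells. Compound incubation 48 hrs at 37 °C in Opti-MEM with 2% FBS; DMSO 0.5% final.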

Setting [1] is: measured here: GFP splicing reporter channel.
Setting [2] is: measured here: RFP viability control channel.

The list shows a part of the results. The main result of the screen is listed elsewhere. These columns were measured beside it and carry no call. Most of these compounds were active or inconclusive in the main read-out, so they are no random draw. The note in brackets gives the kind of curve behind each potency; many fits are weak.

`O=C(O)Cc1ccc(NC(=O)Nc2cccc(Cl)c2)cc1`: the AC50 under setting [1] was 6.31 µM [rising, partial curve, poor fit].
As for `COc1ccc(NC(=O)Nc2sc(NS(=O)(=O)c3ccccc3)nc2C)cc1`, the AC50 under setting [1] was 0.447 µM [rising, partial curve].
For `O=S(=O)(NCCSc1ccc(Cl)cc1)c1ccc2c(c1)OCCO2`, the AC50 runs as follows: under setting [1], 7.08 µM [rising, single point]; under setting [2], 17.8 µM [rising, single point].
`Cc1ccc(C(=O)COC(=O)c2cn(-c3ccccc3)nc2-c2ccccc2)cc1[N+](=O)[O-]`: the AC50 under setting [2] was 14.1 µM [rising, partial curve, poor fit].
Regarding `CCC(C)NCC(=O)Nc1ccc(S(N)(=O)=O)cc1` (stereo not drawn), the AC50 under setting [2] is 0.2 µM [falling, full curve, poor fit].
In the case of `C=CCNc1nc(Nc2ccc([N+](=O)[O-])cc2)nc(OCC)n1`, the AC50 was 35.5 µM [falling, single point] under setting [1] and 22.4 µM [falling, single point] under setting [2].
In the case of `CCOc1ccc(NC(=O)c2ccc(NC(=S)NC3CCCCC3)cc2)cc1`, the AC50 reads like this: under setting [1], 15.8 µM [falling, single point]; under setting [2], 31.6 µM [falling, single point].
For `CC(=O)Nc1ccc(NC(=O)C(c2ccccc2)N2Cc3ccccc3C2=O)cc1` (stereo not drawn), the AC50 under setting [1] is 0.891 µM [falling, full curve, poor fit].
Turning to `CCn1c(N2CCN(C(=O)C34CC5CC(CC(C5)C3)C4)CC2)nc2ccccc21`, the AC50 under setting [2] was 11.2 µM [rising, partial curve, poor fit].
As to `Cn1cc([N+](=O)[O-])c(C(=O)Nc2cnn(Cc3ccc(F)cc3)c2)n1`, the AC50 under setting [2] was 31.6 µM [rising, single point].
Turning to `CCNC(=O)CC1C(=O)N(c2ccc(C)cc2)C(=O)N1CCc1sccc1C` (stereo not drawn), the AC50 under setting [2] was 0.00891 µM [falling, full curve, poor fit].
For the compound `O=C(CCCc1cccs1)N1CCN(S(=O)(=O)c2ccccc2Br)CC1`, the AC50 under setting [2] is 15.8 µM [rising, single point].
For the compound `Fc1cccc2sc(Nc3nc4cc5c(cc4s3)OCO5)nc12`, the AC50 by setting is: under setting [1], 12.6 µM [rising, partial curve]; under setting [2], 7.08 µM [rising, partial curve, poor fit].
For `O=C(CCCN1C(=O)c2cccnc2C1=O)Nc1ccccc1F`, the AC50 under setting [1] was 4.47 µM [rising, partial curve, poor fit] and the AC50 under setting [2] is 3.55 µM [rising, partial curve].
In the case of `COc1ccc(N2C(=O)CCSC23C(=O)N(Cc2ccc(F)cc2)c2ccccc23)cc1` (stereo not drawn), the AC50 was 35.5 µM [falling, partial curve, poor fit] under setting [1] and 1.41 µM [falling, full curve] under setting [2].
With `Cc1ccc2oc(=O)n(CCCOc3ccccc3)c2c1`, the AC50 under setting [1] was 35.5 µM [rising, single point].
In the case of `O=C(O/N=C1\CCCc2ccccc21)C1CC1`, the AC50 under setting [2] was 0.126 µM [rising, full curve].
As to `CC1CN(Cc2csc(-c3ccc(Cl)cc3)n2)CC(C)O1` (stereo not drawn), under setting [2], the AC50 is 0.00316 µM [falling, full curve, poor fit].
In the case of `O=C(NO)c1ccc(C(=O)N(C2CCCCC2)C2CCCCC2)cc1`, the AC50 under setting [1] was 11.2 µM [rising, partial curve, poor fit] and the AC50 under setting [2] was 8.91 µM [rising, partial curve, poor fit].
`CCCCc1ccc(NC(=S)NCCO)cc1`: under setting [2], the AC50 is 0.891 µM [falling, full curve, poor fit].
Still for that read-out and setting: then `Cc1nn(-c2ccc(F)cc2)c2sc(C(=O)N3CCCCCC3)cc12`, with 31.6 µM [rising, single point].
For the compound `OC(COc1c(F)cc(Br)cc1F)CN1CCN(c2ccc(F)cc2)CC1` (stereo not drawn), the AC50 is 15.8 µM [rising, single point] under setting [1] and 7.94 µM [rising, partial curve] under setting [2].
With `CC(C)(Oc1ccc(Cl)cc1)C(=O)N1CCN(c2ccccn2)CC1`, the AC50 under setting [2] was 35.5 µM [rising, single point].
Take `Cc1ccc(NS(=O)(=O)c2ccc3c(c2)CC(C)N3C(=O)C2CCC2)cc1Cl` (stereo not drawn): under setting [2], the AC50 was 35.5 µM [rising, single point].
Take `COc1ccc2c3c(cccc13)C(=O)N(O)C2=O`: the AC50 reads like this: under setting [1], 5.62 µM [rising, partial curve]; under setting [2], 7.94 µM [rising, partial curve].
Consider `COc1ccc(O)c(/C=N/NC(=O)c2ccc(CSc3nc(C)cc(C)n3)cc2)c1`, for which the AC50 under setting [2] is 12.6 µM [rising, partial curve].
With `CCOc1ccc(NC(=O)C2CCCN2C(=O)OCc2ccccc2)cc1` (stereo not drawn), the AC50 was 0.0141 µM [falling, full curve] under setting [1] and 0.0562 µM [falling, full curve, poor fit] under setting [2].
Take `CCOC(=O)C1CCN(c2nc3ccccc3nc2C(C#N)C(=O)NCCc2ccccc2)CC1` (stereo not drawn): the AC50 is, setting by setting: under setting [1], 35.5 µM [rising, single point]; under setting [2], 7.94 µM [rising, partial curve, poor fit].
In the case of `CCN1CCN(CC(O)COc2ccc3c(c2)CCC3)CC1` (stereo not drawn), the AC50 under setting [1] is 25.1 µM [rising, single point].
With `Cc1cccc(NC(=O)NNC(=O)c2nn(C)cc2Br)c1`, the AC50 under setting [1] was 4.47 µM [falling, partial curve] and the AC50 under setting [2] is 3.16 µM [falling, partial curve, poor fit].
As for `O=C(CSc1ccc2c(c1)OCCO2)NC(=O)NC1CCCC1`, the AC50 under setting [1] was 35.5 µM [rising, single point] and the AC50 under setting [2] is 35.5 µM [rising, single point].
For the compound `CN(C)S(=O)(=O)N1CCN(CC(=O)Nc2cc(Cl)ccc2Cl)CC1`, under setting [2], the AC50 was 2.51 µM [rising, partial curve].
On to `Cc1ccc2nc3sc(C(=O)NCc4ccco4)c(N)c3cc2c1`, for which the AC50 under setting [1] was 20 µM [falling, single point] and the AC50 under setting [2] is 15.8 µM [falling, single point].
As for `CCCOc1ccc(CSCCNC(=S)Nc2ccccc2)cc1`, the AC50 under setting [2] is 35.5 µM [rising, single point].
With `O=c1c(-c2cccs2)nc2cnc(N3CCNCC3)nc2n1Cc1cccs1`, the AC50 under setting [2] is 15.8 µM [falling, partial curve].
`CC(Oc1ccc(Cl)cc1Cl)C(=O)NNC(=O)C(=O)N1CCCCC1` (stereo not drawn): the AC50 is, setting by setting: under setting [1], 35.5 µM [rising, single point]; under setting [2], 22.4 µM [rising, single point].
For the compound `CC(N)=O`, the AC50 under setting [2] is 0.00562 µM [falling, full curve, poor fit].
As to `O=C1CCN2C=Nc3cccc4ccc1c2c34`, the AC50 reads like this: under setting [1], 8.91 µM [falling, partial curve, poor fit]; under setting [2], 5.62 µM [falling, partial curve, poor fit].
On to `CC(C)C(=O)Nc1ccc(S(=O)(=O)Nc2nccc(/C=C/c3ccccc3)n2)cc1`, for which the AC50 is, setting by setting: under setting [1], 6.31 µM [falling, single point]; under setting [2], 35.5 µM [rising, single point].
Regarding `CCSC1=C(C#N)C2(CCCCC2)C(C#N)C(=O)N1` (stereo not drawn), the AC50 under setting [1] was 8.91 µM [rising, partial curve].
With `COCCCNCCOCCOc1ccc(Cl)cc1C(C)(C)C`, the AC50 runs as follows: under setting [1], 31.6 µM [rising, single point]; under setting [2], 35.5 µM [rising, single point].
Take `OCCNc1nc(C2CC2)nc2c1nnn2Cc1ccccc1Cl`: the AC50 under setting [2] is 35.5 µM [rising, single point].
In the case of `O=C(c1ccc2c(c1)CCCC2)N1CCN(c2nc3c(F)cccc3s2)CC1`, the AC50 under setting [1] is 0.178 µM [falling, full curve, poor fit].
Consider `COc1ccc(N2C(=O)CC2(/C=C/c2ccccc2OC)C(=O)NC2CCCC2)cc1` (stereo not drawn), for which, under setting [2], the AC50 is 22.4 µM [rising, partial curve, poor fit].
`CCOC(=O)c1ccccc1NC(=O)c1ccc2c(=O)n3c(nc2c1)CCCCC3`: the AC50 is 22.4 µM [falling, single point] under setting [1] and 22.4 µM [falling, single point] under setting [2].
Turning to `CCc1cccc(NC(=O)c2cc3c(=O)n(Cc4ccc(OC)cc4)ccc3nc2C)c1`, the AC50 under setting [1] is 0.00501 µM [falling, full curve, poor fit].
`Cc1ccc(Oc2ccccc2/C=N/O)cc1`: under setting [2], the AC50 was 12.6 µM [rising, partial curve].
With `CCN(CC(=O)Nc1ccccc1Br)C1CCCCC1`, the AC50 under setting [1] is 0.0224 µM [falling, full curve, poor fit] and the AC50 under setting [2] is 0.2 µM [falling, full curve].
Consider `CCCCOc1ccc(C(=O)Nc2ccc(N3CCN(C(=O)C(C)C)CC3)cc2)cc1`, for which the AC50 under setting [2] was 15.8 µM [rising, partial curve].
Consider `Cn1cc(CC(=O)NCCN2CCOCC2)c2ccccc21`, for which the AC50 under setting [1] was 5.01 µM [rising, partial curve, poor fit].
For the compound `Cc1ccc(C(=O)N2NC(c3ccccc3F)C3C(=O)N(c4cccc(C)c4)C(=O)C32)cc1` (stereo not drawn), the AC50 under setting [1] is 5.01 µM [falling, full curve, poor fit] and the AC50 under setting [2] was 15.8 µM [falling, partial curve].
In the case of `COc1ccc(C(=O)c2ccccc2)c2c(O)ccc(C(=O)c3ccccc3)c12`, under setting [2], the AC50 is 2.82 µM [rising, full curve].
For `CC1CCCN(CCOCCOc2ccc(Br)cc2Cl)C1` (stereo not drawn), the AC50 under setting [2] was 20 µM [rising, partial curve, poor fit].
Consider `CC1Cc2ccccc2N1C(=O)COc1cccc(-n2cnnn2)c1` (stereo not drawn), for which the AC50 was 0.282 µM [rising, full curve, poor fit] under setting [1] and 5.01 µM [rising, partial curve, poor fit] under setting [2].
Consider `CN(C)C(=O)c1ccc(-c2ccc3ncnc(N4CCOCC4)c3c2)cc1`, for which the AC50 under setting [2] was 11.2 µM [falling, partial curve].
`CCOc1ccccc1N1CCN(C(=O)c2cccc(-c3ccc(O)cc3)c2)CC1`: the AC50 under setting [2] was 0.0891 µM [rising, full curve, poor fit].

The values above are taken from PubChem BioAssay AID1487 (National Center for Advancing Translational Sciences (NCATS), 2009).
